Results from patent publication US7785829 (Biogen, dated 2010).
These are yes or no findings as the source states them, for the method shown. For some of these results: In cells and extracts the contact can be indirect. Some entries that bind do so weakly or less than the wild type.

Sequences of proteins named here, by UniProt entry; tags and fusion partners are left off. A change or cut given only in a name is not applied to a line headed by its entry. Residues count along the entry.
UniProt Q96FE5: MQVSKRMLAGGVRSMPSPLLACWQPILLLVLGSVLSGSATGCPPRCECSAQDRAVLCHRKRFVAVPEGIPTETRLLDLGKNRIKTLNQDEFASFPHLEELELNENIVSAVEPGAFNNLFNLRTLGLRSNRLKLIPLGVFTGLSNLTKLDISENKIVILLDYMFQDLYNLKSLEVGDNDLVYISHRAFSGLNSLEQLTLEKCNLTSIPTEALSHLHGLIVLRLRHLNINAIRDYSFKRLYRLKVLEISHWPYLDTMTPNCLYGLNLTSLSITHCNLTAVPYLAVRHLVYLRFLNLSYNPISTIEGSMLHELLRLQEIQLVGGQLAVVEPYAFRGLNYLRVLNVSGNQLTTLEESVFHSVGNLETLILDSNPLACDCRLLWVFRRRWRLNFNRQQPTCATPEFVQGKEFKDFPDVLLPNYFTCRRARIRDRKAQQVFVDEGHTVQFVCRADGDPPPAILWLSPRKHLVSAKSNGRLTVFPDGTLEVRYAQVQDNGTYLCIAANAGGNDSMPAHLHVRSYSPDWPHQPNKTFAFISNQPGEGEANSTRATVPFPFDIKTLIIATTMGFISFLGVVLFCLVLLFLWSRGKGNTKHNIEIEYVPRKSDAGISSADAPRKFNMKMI
UniProt P07174, residues 30-425: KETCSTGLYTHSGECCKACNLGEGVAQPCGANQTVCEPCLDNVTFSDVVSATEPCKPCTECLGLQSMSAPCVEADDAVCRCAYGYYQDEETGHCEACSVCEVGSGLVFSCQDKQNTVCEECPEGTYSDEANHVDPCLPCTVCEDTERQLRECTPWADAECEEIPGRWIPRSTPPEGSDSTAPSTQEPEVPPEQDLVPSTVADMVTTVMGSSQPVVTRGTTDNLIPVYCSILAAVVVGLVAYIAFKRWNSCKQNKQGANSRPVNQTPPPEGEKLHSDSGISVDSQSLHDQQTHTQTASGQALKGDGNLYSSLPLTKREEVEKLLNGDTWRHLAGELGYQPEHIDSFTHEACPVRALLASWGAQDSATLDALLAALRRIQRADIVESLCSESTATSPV

What was measured:
[1] = molecular target: T1, human NgR1 receptor expressed on COS7 cells (human) (UniProt Q9BZR6); test: co-immunoprecipitation from COS7 cells co-expressing SP35, NgR1 and p75
T1 sequence (looked up): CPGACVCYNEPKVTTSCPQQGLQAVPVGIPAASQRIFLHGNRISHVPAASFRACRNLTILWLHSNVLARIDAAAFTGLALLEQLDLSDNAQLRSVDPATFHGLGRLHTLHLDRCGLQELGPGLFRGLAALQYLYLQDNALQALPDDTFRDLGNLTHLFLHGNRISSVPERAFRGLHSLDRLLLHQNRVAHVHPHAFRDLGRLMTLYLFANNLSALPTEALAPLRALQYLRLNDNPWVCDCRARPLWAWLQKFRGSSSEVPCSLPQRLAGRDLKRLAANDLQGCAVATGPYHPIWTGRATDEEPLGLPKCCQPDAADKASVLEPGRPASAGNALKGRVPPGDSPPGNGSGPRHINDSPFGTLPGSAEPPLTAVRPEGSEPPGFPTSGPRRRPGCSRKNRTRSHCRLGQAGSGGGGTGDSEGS

[2] = molecular target: Sp35-Fc fusion protein (extra-cellular portion of human Sp35, residues 1-531, fused to the hinge and Fc region of human IgG1) (human) (UniProt Q96FE5); test: immunoprecipitation from HA-Sp35-transfected cells treated with Sp35-Fc
[3] = molecular target: T1, human NgR1 receptor expressed on COS7 cells (human); test: AP fusion binding to COS7 cells transfected with NgR1; NgR1 and p75; NgR1, p75 and SP35 (FIG. 5)

Molecule	binding [1]	also measured
SP35 expressed in transfected cells (COS7, HEK293) (from UniProt Q96FE5 40-620) (receptor)	binds	–
Sp35-hemagglutinin (Sp35 signal sequence and extracellular domain, amino acids 1-531, with HA tag) (from UniProt Q96FE5 40-537)	–	binding [2]: binds
rat p75 expressed on COS7 cells (from UniProt P07174 30-425) (receptor)	binds	–
AP-Omgp (ligand, UniProt P23515 25-417, looked up, not shown: large carriers) ICPLQCICTERHRHVDCSGRNLSTLPSGLQENIIHLNLSYNHFTDLHNQLTQYTNLRTLDISNNRLESLPAHLPRSLWNMSAANNNIKLLDKSDTAYQWNLKYLDVSKNMLEKVVLIKNTLRSLEVLNLSSNKLWTVPTNMPSKLHIVDLSNNSLTQILPGTLINLTNLTHLYLHNNKFTFIPDQSFDQLFQLQEITLYNNRWSCDHKQNITYLLKWMMETKAHVIGTPCSTQISSLKEHNMYPTPSGFTSSLFTVSGMQTVDTINSLSVVTQPKVTKIPKQYRTKETTFGATLSKDTTFTSTDKAFVPYPEDTSTETINSHEAAAATLTIHLQDGMVTNTSLTSSTKSSPTPMTLSITSGMPNNFSEMPQQSTTLNLWREETTTNVKTPLPS	–	binding [3]: binds
